The campaign covered roughly 340,000 compounds. About 6,200 (1.8%) were called active. Inconclusive means that the source gave no clear call. Such entries were picked first, then a sample of the others. Calls follow the shape of the dose curve; as a rule, active = well fitted activation curve with a large enough effect; inconclusive = small, poorly fitted or top-dose-only effect; inactive = no such curve, though single readings can be large or run the other way. A potency beside an inconclusive call is a rough fit, not a confirmed value.
Assay: A quantitative high throughput screen for small molecules that induce DNA re-replication in SW480 colon adenocarcinoma cells. Also: nearly all actives have a fitted effect of over 55% in size. As to re-replication activation: % of control where 0% means no effect.
Conditions: Hoechst DNA content imaging, 48 h; re-replication activation: at 46.1 µM (top of the series) unless noted
Procedure, shortened: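 Image-based read-out: total Hoechst fluorescence of nuclei (405 nm excitation, 500-530 nm emission), with hits raising the fraction of high-intensity nuclei. SW480 colon cells incubated 48 hr with compounds at 37 C.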
Potency is read from the fitted curve at half-maximal effect.

Row | SMILES | re-replication activation | Potency
1 | CC(C)(C)OC(=O)N1CCCC(C(=O)Nc2ccc(C(=O)N3CCCCC3)cc2)C1 (configuration not stated) | inactive: 4.01% | 
2 | O=C(c1ccoc1)N1CCC2(CC1)Oc1ccc(F)cc1C(=O)C21CC(c2ccc(Cl)cc2)=NO1 (configuration not stated) | inactive: -47.3% [at 9.22 µM] | 
3 | NC(=O)c1cccnc1Oc1ccccc1 |  | inconclusive: 11.6 µM [activator, partial curve, poor fit]
4 | Cn1c(=O)c(C(=O)NNC(=O)c2ccccc2F)c(O)c2ccccc21 |  | inconclusive: 18.4 µM [activator, single point]
5 | CCN(CC)S(=O)(=O)c1ccc(C(=O)NCCN2C(=O)S/C(=C\c3cccnc3)C2=O)cc1 | inactive: -120% | 
6 | O=C1NC2(C=Cc3c(ccc4ccccc34)O2)Oc2ccccc21 (configuration not stated) |  | inconclusive: 29.1 µM [activator, partial curve, poor fit]
7 | Cc1ccccc1C(=O)NNC(=O)C1CCN(c2ncccn2)CC1 |  | inconclusive: 29.1 µM [activator, partial curve, poor fit]
8 | COc1cccc(NC(=O)NNC(=O)CCc2ccc(O)c(O)c2)c1 | inactive: -6.39% | 
9 | O=C(N/N=C/C=C/c1ccccc1)c1n[nH]c2c1CCC2 |  | active: 2.06 µM
10 | CC(c1ccccc1)N1CCC(CNC(=S)Nc2cccc(Cl)c2)C1 (configuration not stated) |  | inconclusive: 29.1 µM [activator, single point]
11 | Cc1nn(Cc2ccc(C(=O)NN)o2)c(C)c1Cl |  | inconclusive: 0.0461 µM [activator, full curve, poor fit]
12 | CC[C@]1(C(=O)OC)[C@H]2C(=O)N(C)C(=O)[C@H]2[C@H]2CN=C(SCc3ccc(Cl)cc3)N21 |  | inconclusive: 0.411 µM [activator, single point]
13 | O=C(COC(=O)c1cncc(Br)c1)NCc1ccccc1Cl |  | inconclusive: 29.1 µM [activator, single point]
14 | COC(=O)Nc1nc(-c2ccccc2)c(C(=O)c2ccccc2)s1 |  | active: 0.411 µM
15 | O=c1[nH]c(/C=C/c2ccccc2Cl)nc2ccccc12 |  | active: 18.4 µM
16 | CCCS(=O)(=O)N1CCN(Cc2ccc3c(c2)c2ccccc2n3CC)CC1 |  | inconclusive: 20.6 µM [activator, single point]
17 | CCc1cc(-c2n[nH]c(C)c2-c2nc3ccccc3n2C)c(O)cc1O |  | inconclusive: 29.1 µM [activator, single point]
18 | CN(C)c1ccc(-c2nc3n(n2)C(c2cccnc2)C2=C(CC(C)(C)CC2=O)N3)cc1 (configuration not stated) |  | inconclusive: 4.61 µM [activator, partial curve, poor fit]
19 | CC(=O)Oc1ccc(C2(c3ccc(OC(C)=O)cc3)C(=O)Nc3ccccc32)cc1 |  | inactive
20 | COc1ccccc1CN1CCC(CNS(=O)(=O)c2cc(-c3onc(C)c3C)ccc2OC)CC1 |  | inconclusive: 29.1 µM [activator, single point]
21 | CN(C)CCCNC(=O)C[C@H]1C[C@H](C(=O)N2CCCCC2)[C@@]2(C)c3[nH]c4cc(-c5ccco5)ccc4c3CCN2C1=O |  | active: 2.06 µM
22 | Cc1cc(C(=O)CSc2ncccn2)c(C)n1Cc1ccco1 | inactive: 0.869% | 
23 | CCN(CC)CCCNC(=S)N1CCN(c2nc(-c3ccccc3)cs2)CC1 |  | inconclusive: 29.1 µM [activator, single point]

In a second layout: results already given.
Row	SMILES	re-replication activation	Potency
10	CC(c1ccccc1)N1CCC(CNC(=S)Nc2cccc(Cl)c2)C1 (configuration not stated)		inconclusive: 29.1 µM [activator, single point]
11	Cc1nn(Cc2ccc(C(=O)NN)o2)c(C)c1Cl		inconclusive: 0.0461 µM [activator, full curve, poor fit]
12	CC[C@]1(C(=O)OC)[C@H]2C(=O)N(C)C(=O)[C@H]2[C@H]2CN=C(SCc3ccc(Cl)cc3)N21		inconclusive: 0.411 µM [activator, single point]
13	O=C(COC(=O)c1cncc(Br)c1)NCc1ccccc1Cl		inconclusive: 29.1 µM [activator, single point]

(list continues)

Row | SMILES | re-replication activation | Potency
24 | C/C(CC(=O)Nc1ccc(N(C)C)cc1)=N\NC(=O)c1ccccc1O | inconclusive: 134% [activator] | 
25 | Cc1ccc(-n2c(Cn3c(C)nc4ccccc43)n[nH]c2=S)cc1 |  | inconclusive: 18.4 µM [activator, single point]
26 | O=C(/C=C/c1ccco1)Nc1ccc2nc3n(c(=O)c2c1)CCCC3 | inactive: -7.71% | 
27 | CCOCCCn1c(C)nc2c(c1=O)c1nc3ccccc3nc1n2CCC1=CCCCC1 |  | inconclusive: 20.6 µM [activator, single point]
28 | O=C(CCN1C(=O)/C(=C\c2ccccc2F)SC1=S)N1CCCCC1 |  | inconclusive: 11.6 µM [activator, partial curve, poor fit]
29 | COCCSc1nc2sc3c(c2c(=O)n1-c1ccccc1)CCN(C)C3 |  | inconclusive: 29.1 µM [activator, partial curve, poor fit]
30 | CCCN1CCN(S(=O)(=O)c2ccc(-c3cc(C)no3)s2)CC1 |  | inconclusive: 0.259 µM [activator, full curve, poor fit]
31 | CCOc1ccc(N/C(SC)=C(/C#N)C(N)=O)cc1 |  | inconclusive: 29.1 µM [activator, single point]
32 | CC(C)Oc1ccc(C(CCNCc2ccc(O)cc2)c2ccccc2)cc1 (configuration not stated) | inactive: 18% | 
33 | Cc1ccc(C(=O)CCS(=O)(=O)c2ccc(F)cc2)cc1 |  | inconclusive: 4.61 µM [activator, full curve, poor fit]
34 | O=C(N/N=C/c1ccc(O)cc1)c1csc2c1CCCC2 | inactive: -2.84% | 
35 | Cc1cccc(Nc2nc(-c3ccc(O)cc3O)cs2)n1 |  | inconclusive: 29.1 µM [activator, single point]
36 | Cc1ccc(/C=C2\SC(=S)N(CC3CCCO3)C2=O)o1 (configuration not stated) |  | inconclusive: 10.3 µM [activator, partial curve]
37 | O=C(NCc1ccccc1)C1=C[C@H](c2ccc(C(F)(F)F)cc2)C[C@H](OCCCCO)O1 | inactive: 2.84% [at 9.22 µM] | 
38 | CC(=O)Oc1ccc(OC(C)=O)c2c1C1C=CC2CC1 |  | inconclusive: 18.4 µM [activator, single point]
39 | C=CCOc1ccccc1CN1CCC(Oc2ccc(C(=O)N3CCCC3)cc2)CC1 |  | inconclusive: 4.11 µM [activator, partial curve, poor fit]
40 | Cc1cc2nc(/C(C#N)=C/c3ccncc3)[nH]c2cc1C |  | active: 13 µM
41 | O=C(Oc1cccc2cccnc12)c1ccco1 |  | inconclusive: 16.4 µM [activator, single point]
42 | O=C(CC1C(=O)NCCN1Cc1cccc(C(F)(F)F)c1)NCCCOc1cccnc1 (configuration not stated) | inactive: -19.3% | 
43 | CC(NC(=O)c1ccco1)C(c1cccs1)N1CCN(c2ccc(F)cc2)CC1 (configuration not stated) |  | inconclusive: 32.6 µM [activator, partial curve, poor fit]
44 | O=C1c2ccc3c4c(ccc(c24)C(=O)N1NC(=O)C(F)(F)F)CC3 |  | inconclusive: 29.1 µM [activator, single point]
45 | N#C/C(=C(/O)COc1ccccc1)c1nc2ccccc2s1 |  | inconclusive: 23.1 µM [activator, single point]
46 | CCOC(=O)N1CCC(N(C(=O)Nc2cccc(OC)c2)C(C)CC)CC1 (configuration not stated) | inactive: -4.18% | 

Row | SMILES | re-replication activation | Potency
47 | COc1ccc(-c2nc(CN3CCN(c4cc(C)nc(C)c4)CC3)c(C)o2)c2ccccc12 |  | inconclusive: 23.1 µM [activator, single point]
48 | Cc1ccc(S(=O)(=O)N2CCC(C(=O)Nc3ccc(C(C)C)cc3)CC2)cc1 |  | inconclusive: 29.1 µM [activator, single point]
49 | Cc1cc(NC(=S)NC(=O)c2ccccc2)ccc1-c1cc2ccccc2oc1=O |  | inconclusive: 9.2 µM [activator, single point]
50 | CN(C)CCn1cnc2c(c1=N)C(c1ccccc1)c1ccc3ccccc3c1O2 (configuration not stated) | inactive: -2.23% | 
51 | COc1ccc(OCC(=O)Nc2ccccc2-c2ccccc2)cc1 |  | inconclusive: 23.1 µM [activator, single point]
52 | Cc1ccc2c(c1)[C@H]1[C@H](CO2)[C@H](c2ccccc2)[C@]2(C)C(=O)Nc3ccc(Br)cc3C(=O)N12 |  | inconclusive: 25.9 µM [activator, single point]
53 | CC1(C)Cc2cccc(OCC(=O)OCC(=O)NCc3ccccc3)c2O1 | inactive: -1.79% | 
54 | COc1cc(C(=O)Oc2cccc(/C=N/NC(=O)c3cccnc3)c2)cc(OC)c1OC |  | inconclusive: 29.1 µM [activator, single point]
55 | O=C(c1cc([N+](=O)[O-])ccc1Cl)N1CCN(c2ccccn2)CC1 |  | inconclusive: 4.11 µM [activator, single point]
56 | O=C(c1ccccn1)N1CCN(S(=O)(=O)c2ccc3ccccc3c2)CC1 |  | inconclusive: 29.1 µM [activator, single point]
57 | COc1ccc(CCNc2nc(-c3ccco3)cc(C(F)(F)F)n2)cc1OC | inactive: -6.34% | 
58 | COc1cc2c(cc1OC)C(Cc1ccc(O)cc1)NCC2 (configuration not stated) |  | inconclusive: 20.6 µM [activator, single point]
59 | Cc1noc(C)c1S(=O)(=O)Nc1ccc2c(c1)CC(=O)N([C@H](C)CO)C[C@H](C)[C@H](CN(C)S(=O)(=O)c1ccc(F)cc1)O2 |  | inconclusive: 20.6 µM [activator, partial curve, poor fit]
60 | O=C(Cc1c(F)cccc1Cl)Nc1ccncc1 |  | inconclusive: 20.6 µM [activator, single point]
61 | O=[N+]([O-])c1ccc(C2=CSC3=NCCN23)cc1 | inactive: -4.44% | 
62 | CC1=C(C(=O)Nc2ccccn2)C(c2ccc(Br)cc2)NC(=S)N1 (configuration not stated) |  | inconclusive: 29.1 µM [activator, single point]
63 | O=C(O)c1cc([N+](=O)[O-])c(Sc2nc3ccccc3[nH]2)c([N+](=O)[O-])c1 | inconclusive: 59.6% [activator] | 
64 | Cc1c(C(=O)N2CCCc3ccccc32)oc2ccc(S(=O)(=O)N3CCOCC3)cc12 |  | inconclusive: 14.6 µM [activator, partial curve, poor fit]
65 | Nc1ccccc1N1C(=O)c2cccc3cccc(c23)C1=O |  | active: 18.4 µM
66 | COc1ccc(C(=O)Nc2ccccc2C(=O)Nc2ccccn2)cc1 |  | inconclusive: 0.206 µM [activator, single point]
67 | Cc1cc(-c2ccccc2)nc(=O)[nH]1 | inactive: -2.65% | 
